# Some of the results follow. These are further read-outs of the screen, such as a control signal, another cell line or another target. No call is given for them. The list favours compounds with an active or inconclusive main result. Potencies come from curve fits of mixed quality, noted in brackets.
# Assay: qHTS Assay for Lipid Storage Modulators in Drosophila S3 Cells;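 on cell number change: cells counted by Cell Tracker Red CMTPX staining in the red channel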
# Details: BODIPY lipid droplet fluorescence, 18-24 h; for cell number change: measured here: cell count max response, cells fed with added oleic acid
# Outline: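 Drosophila S3 cells got compounds at several concentrations plus oleic acid (400 uM solution). Laser-scanning cytometry with 488 nm excitation read lipid droplets at 500-530 nm and cells at 575-640 nm. Percent activity was relative to 20 uM Triacsin C.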
# [1] = measured here: cell number channel AC50, cells fed with added oleic acid
# [2] = measured here: lipid fluorescence (Fed channel) AC50, cells fed with added oleic acid
smiles,measurement,setting,value
O=C(NCc1n[nH]c(=S)n1-c1ccc([N+](=O)[O-])cc1)c1ccc(S(=O)(=O)N2CCOCC2)cc1,cell number change,,-9.06%
same,AC50,[1],"7.31 µM [falling, partial curve, poor fit]"
same,AC50,[2],"0.103 µM [falling, full curve, poor fit]"
O=C1CC(c2cccc(Cl)c2)CC(O)=C1C=Nc1ccccc1 (configuration not stated),cell number change,,30.6%
same,AC50,[1],"29.1 µM [rising, single point]"
same,AC50,[2],"4.11 µM [falling, partial curve, poor fit]"
Cc1ccc(-c2c(C#N)c(N)n(-c3ccc(C)cc3)c(=O)c2C#N)cc1,cell number change,,8.48%
same,AC50,[2],"16.4 µM [falling, single point]"
O=C(COc1ccccc1)NNC(=O)c1ccc(Cl)cc1,cell number change,,5.64%
same,AC50,[2],"16.4 µM [rising, single point]"
OC(CN1CCN(Cc2ccccc2)CC1)Cn1c2ccccc2c2ccccc21 (configuration not stated),cell number change,,-47.3%
same,AC50,[2],"32.6 µM [falling, single point]"
CNCc1ccccc1Sc1ccc(O)c(O)c1,cell number change,,-8.68%
same,AC50,[2],"29.1 µM [falling, single point]"
O=C(C1CCC(Cn2c(=S)[nH]c3ccccc3c2=O)CC1)N1CCOCC1 (configuration not stated),cell number change,,-20.6%
CSc1nncn1/N=C/c1ccc([N+](=O)[O-])cc1,cell number change,,-142%
same,AC50,[1],"29.1 µM [falling, partial curve]"
same,AC50,[2],"23.1 µM [falling, single point]"
CC(C)(C)c1ccc(C(=O)NNC(=O)c2ccncc2)cc1,cell number change,,-2.62%
same,AC50,[2],"29.1 µM [rising, single point]"
Cc1nc(C)c(-c2csc(Nc3ccc(O)c(C(=O)O)c3)n2)s1,cell number change,,-10.4%
same,AC50,[2],"29.1 µM [rising, single point]"
O=C(COC(=O)CN1C(=O)C2CCCCC2C1=O)NC1CCS(=O)(=O)C1 (configuration not stated),cell number change,,-3.49%
same,AC50,[1],"5.17 µM [falling, partial curve]"
same,AC50,[2],"29.1 µM [falling, partial curve, poor fit]"
Cc1cc(C)nc(Nc2nc(-c3ccccc3)cs2)n1,cell number change,,-22%
same,AC50,[2],"6.51 µM [falling, full curve, poor fit]"
COc1ccc(N(C(=O)c2cccc(OC)c2OC)C2C=CS(=O)(=O)C2)c(OC)c1 (configuration not stated),AC50,[1],"0.092 µM [falling, full curve, poor fit]"
same,AC50,[2],"0.651 µM [falling, single point]"
O=C(O)c1nn2c(C(F)(F)F)cc(-c3cccs3)nc2c1Cl,cell number change,,11.5%
same,AC50,[2],"2.59 µM [rising, single point]"
COc1ccc(N=NC2C(=O)N(c3ccccc3)N=C2C)cc1 (configuration not stated),cell number change,,-31.3%
same,AC50,[1],"7.31 µM [falling, full curve, poor fit]"
same,AC50,[2],"2.91 µM [falling, full curve]"
CCN(CC)S(=O)(=O)c1cccc(C(=O)/C=C2/N(C)c3ccccc3C2(C)C)c1,cell number change,,13.9%
same,AC50,[2],"6.51 µM [rising, single point]"
Cn1nnnc1SCC(=O)Nc1nc(-c2ccc(F)c(F)c2)cs1,AC50,[1],"6.51 µM [rising, single point]"
c1ccc2c3c([nH]c2c1)C1(CCCCC1)NCC3,cell number change,,-47.7%
same,AC50,[1],"29.1 µM [falling, single point]"
O=C(NCc1cccnc1)c1ccc(Cl)c(S(=O)(=O)N2CCCCCC2)c1,cell number change,,4.86%
same,AC50,[1],"0.00517 µM [rising, full curve, poor fit]"
Cc1ccc(S(=O)(=O)N(C(=O)c2ccncc2)c2ccc3oc4c(c3c2)CCCC4)cc1[N+](=O)[O-],cell number change,,8.79%
same,AC50,[2],"32.6 µM [falling, single point]"
O=C(CCn1nc(-c2ccccc2)ccc1=O)N1CCCC1,cell number change,,20.7%
same,AC50,[1],"4.61 µM [falling, partial curve]"
same,AC50,[2],"2.59 µM [falling, full curve]"
c1ccc(CCn2nnnc2C(c2cccs2)N2CCN(Cc3ccc4c(c3)OCO4)CC2)cc1 (configuration not stated),cell number change,,-17%
same,AC50,[1],"0.184 µM [rising, full curve, poor fit]"
O=C(Nc1ccc2oc(-c3cccc(F)c3)nc2c1)c1ccccc1F,cell number change,,-5.55%
COc1cc2c(cc1OC)C1O[C@](CCCCN3C(=O)c4ccccc4C3=O)(C2)OC2=C1C(=O)CCC2,cell number change,,30.6%
COc1ccc(NC2=CC(=O)CC(C)(C)C2)cc1,cell number change,,12%
same,AC50,[2],"2.91 µM [rising, partial curve, poor fit]"
CCN1CCN(C(=O)c2nn(-c3ccccc3)c(=O)c3ccccc23)CC1,cell number change,,-15.3%
same,AC50,[2],"5.17 µM [falling, partial curve]"
Nn1c(Cc2ccccc2F)nnc1SCCOc1ccc(Cl)cc1,cell number change,,-12.7%
same,AC50,[1],"0.731 µM [rising, single point]"
CN(C)CCOC(c1ccc(Cl)cc1)c1ccccn1 (configuration not stated),cell number change,,0.528%
same,AC50,[1],"6.51 µM [rising, single point]"
O=C(CSc1nc(=O)n2ccccc2n1)N1CCCc2ccccc21,cell number change,,-32.6%
same,AC50,[1],"32.6 µM [falling, single point]"
same,AC50,[2],"4.61 µM [falling, partial curve]"
O=C(CP(=O)(CO)CO)c1ccc(Cl)cc1,AC50,[1],"4.11 µM [falling, single point]"
COc1cccc(/C=C(\C#N)c2nc3ccccc3[nH]2)c1OCC(=O)O,cell number change,,34.1%
same,AC50,[1],"29.1 µM [rising, single point]"
CC1(C)COC(c2ccc(F)c([N+](=O)[O-])c2)=N1,cell number change,,-13.5%
CC(C)OC(=O)/C(C#N)=C/c1cn(Cc2ccccc2)c2ccccc12,cell number change,,-3.16%
same,AC50,[2],"29.1 µM [falling, single point]"
O=C(CSc1nnc(Cc2ccccc2)o1)c1cc(F)ccc1F,cell number change,,35.3%
same,AC50,[2],"25.9 µM [rising, single point]"
CC1CCCCN1C(=O)Cn1c(=O)oc2cc(S(=O)(=O)N3CCCC3)ccc21 (configuration not stated),cell number change,,-9.88%
same,AC50,[2],"1.03 µM [rising, full curve]"
CCC(=O)c1ccc(OCC(=O)OCC(=O)N2CCN(c3ccc(OC)cc3)CC2)cc1,cell number change,,6.33%
same,AC50,[1],"0.00517 µM [falling, full curve, poor fit]"
same,AC50,[2],"5.17 µM [falling, full curve]"
O=C(NC(=O)c1ccccc1)NC(=O)c1ccccc1,cell number change,,39.8%
same,AC50,[1],"16.4 µM [rising, single point]"
COc1cccc(CNC(=O)CNC(=O)c2cccs2)c1,cell number change,,2.67%
CCCCOc1ccc(-c2nc(SCC(N)=O)n[nH]2)cc1,cell number change,,-1.39%
COc1ccc(NC(=O)Nc2nnc(N3CCCCC3C)s2)cc1OC (configuration not stated),AC50,[2],"20.6 µM [rising, single point]"
COc1ccc(C(=O)Nc2cccc3ccccc23)cc1,cell number change,,2.11%
COc1cc(Nc2cc(C)nc3nc(C)nn23)cc(OC)c1OC,cell number change,,-24.4%
same,AC50,[2],"29.1 µM [falling, single point]"
COc1ccc(C(=O)Nc2ccc(C(=O)OCC(=O)c3cccc4ccccc34)cc2)cc1,cell number change,,-21.4%
same,AC50,[2],"4.11 µM [falling, full curve, poor fit]"
CCc1ccc(OCC(O)CN2CCN(c3ccccc3)CC2)cc1 (configuration not stated),cell number change,,0.993%
same,AC50,[2],"9.2 µM [falling, single point]"
CCCCCn1c(CN2CCN(Cc3ccccc3)CC2)nc2c1c(=O)n(C)c(=O)n2C,cell number change,,-21.4%
same,AC50,[2],"18.4 µM [falling, partial curve]"
CC(=O)OCc1c(-c2ccccc2)c2cc([N+](=O)[O-])ccc2n1C,cell number change,,-1.39%
same,AC50,[2],"6.51 µM [rising, partial curve]"
COc1ccc(S(=O)(=O)NCCCN2CCCC2=O)cc1OC,cell number change,,-33.9%
same,AC50,[1],"25.9 µM [falling, single point]"
CC(C)c1nc(C#N)c(NCCCn2ccnc2)o1,cell number change,,-3.09%
same,AC50,[2],"4.11 µM [rising, full curve]"
CN1CCN(S(=O)(=O)c2ccc3c(c2)oc(=O)n3C)CC1,cell number change,,19.5%
CC1(c2ccccc2Br)NC(=O)N(CC(=O)NC2CCCCC2)C1=O (configuration not stated),cell number change,,-10.5%
same,AC50,[2],"2.31 µM [rising, single point]"
O=C(/C=C/c1ccccc1)Nc1cc(S(=O)(=O)N2CCOCC2)ccc1N1CCCC1,cell number change,,-33.1%
same,AC50,[1],"5.8 µM [falling, partial curve, poor fit]"
same,AC50,[2],"0.00651 µM [falling, full curve]"
Cc1cccc(NC(=S)Nc2ccc(Br)cc2)c1,cell number change,,-19.3%
Cc1nc(SCC(=O)NC2CCCCC2C)c(C#N)c(C)c1C (configuration not stated),cell number change,,31.7%
same,AC50,[1],"23.1 µM [rising, single point]"
same,AC50,[2],"29.1 µM [rising, single point]"
COc1cc(C2C(C#N)=C(N)N(Nc3ccccc3)C3=C2C(=O)CC(C)(C)C3)ccc1OCc1cccc(F)c1 (configuration not stated),cell number change,,-6.51%
COc1ccc2oc(=O)c(-c3csc(Nc4cccc(O)c4)n3)cc2c1,cell number change,,8.29%
same,AC50,[2],"23.1 µM [rising, single point]"
COc1ccc(-c2csc(NC(=O)c3ccc(N4C(=O)CCC4=O)cc3)n2)cc1OC,cell number change,,41.9%
same,AC50,[1],"16.4 µM [rising, single point]"
Cc1ccc(C2c3c(oc4cc(C)c(C)cc4c3=O)C(=O)N2CCCN2CCOCC2)cc1 (configuration not stated),cell number change,,91.6%
same,AC50,[1],"10.3 µM [rising, partial curve]"
same,AC50,[2],"6.51 µM [rising, single point]"
C=CCN1C(=O)c2ccc(C(=O)N(C)CC(=O)Nc3ccccc3Br)cc2C1=O,cell number change,,-27.8%
same,AC50,[2],"18.4 µM [falling, single point]"
CN(Cc1ccccc1F)C(=O)CN1C(=O)NC2(CCc3ccccc32)C1=O (configuration not stated),AC50,[2],"0.00461 µM [rising, full curve, poor fit]"
CCOC(=O)CC1=CC(C)(CC(=O)OCC)C(C#N)(C#N)C(N)=C1C#N (configuration not stated),cell number change,,89.2%
same,AC50,[1],"6.51 µM [rising, partial curve]"

# Reformatted as tab-separated lines: part of the list above
smiles	measurement	setting	value
COc1cccc(CNC(=O)CNC(=O)c2cccs2)c1	cell number change		2.67%
CC1(c2ccccc2Br)NC(=O)N(CC(=O)NC2CCCCC2)C1=O (configuration not stated)	cell number change		-10.5%

# Retrieved one by one from the entries so far (6):
smiles,measurement,setting,value
COc1ccc(N=NC2C(=O)N(c3ccccc3)N=C2C)cc1 (configuration not stated),AC50,[1],"7.31 µM [falling, full curve, poor fit]"
CC1(c2ccccc2Br)NC(=O)N(CC(=O)NC2CCCCC2)C1=O (configuration not stated),cell number change,,-10.5%
O=C1CC(c2cccc(Cl)c2)CC(O)=C1C=Nc1ccccc1 (configuration not stated),AC50,[1],"29.1 µM [rising, single point]"
CN(Cc1ccccc1F)C(=O)CN1C(=O)NC2(CCc3ccccc32)C1=O (configuration not stated),AC50,[2],"0.00461 µM [rising, full curve, poor fit]"
O=C(CCn1nc(-c2ccccc2)ccc1=O)N1CCCC1,AC50,[2],"2.59 µM [falling, full curve]"
COc1ccc(C(=O)Nc2cccc3ccccc23)cc1,cell number change,,2.11%
